Measured values from paper PMC7493855.
Results are given in words; binding and its absence hold for the method and conditions named. Binding seen in cells or lysates may run through a third protein. Some results given as binding are weak or reduced against the parent protein; the word gives no strength.

Amino acid sequences for entries named in this document (tags omitted).
UniProt Q3URK3: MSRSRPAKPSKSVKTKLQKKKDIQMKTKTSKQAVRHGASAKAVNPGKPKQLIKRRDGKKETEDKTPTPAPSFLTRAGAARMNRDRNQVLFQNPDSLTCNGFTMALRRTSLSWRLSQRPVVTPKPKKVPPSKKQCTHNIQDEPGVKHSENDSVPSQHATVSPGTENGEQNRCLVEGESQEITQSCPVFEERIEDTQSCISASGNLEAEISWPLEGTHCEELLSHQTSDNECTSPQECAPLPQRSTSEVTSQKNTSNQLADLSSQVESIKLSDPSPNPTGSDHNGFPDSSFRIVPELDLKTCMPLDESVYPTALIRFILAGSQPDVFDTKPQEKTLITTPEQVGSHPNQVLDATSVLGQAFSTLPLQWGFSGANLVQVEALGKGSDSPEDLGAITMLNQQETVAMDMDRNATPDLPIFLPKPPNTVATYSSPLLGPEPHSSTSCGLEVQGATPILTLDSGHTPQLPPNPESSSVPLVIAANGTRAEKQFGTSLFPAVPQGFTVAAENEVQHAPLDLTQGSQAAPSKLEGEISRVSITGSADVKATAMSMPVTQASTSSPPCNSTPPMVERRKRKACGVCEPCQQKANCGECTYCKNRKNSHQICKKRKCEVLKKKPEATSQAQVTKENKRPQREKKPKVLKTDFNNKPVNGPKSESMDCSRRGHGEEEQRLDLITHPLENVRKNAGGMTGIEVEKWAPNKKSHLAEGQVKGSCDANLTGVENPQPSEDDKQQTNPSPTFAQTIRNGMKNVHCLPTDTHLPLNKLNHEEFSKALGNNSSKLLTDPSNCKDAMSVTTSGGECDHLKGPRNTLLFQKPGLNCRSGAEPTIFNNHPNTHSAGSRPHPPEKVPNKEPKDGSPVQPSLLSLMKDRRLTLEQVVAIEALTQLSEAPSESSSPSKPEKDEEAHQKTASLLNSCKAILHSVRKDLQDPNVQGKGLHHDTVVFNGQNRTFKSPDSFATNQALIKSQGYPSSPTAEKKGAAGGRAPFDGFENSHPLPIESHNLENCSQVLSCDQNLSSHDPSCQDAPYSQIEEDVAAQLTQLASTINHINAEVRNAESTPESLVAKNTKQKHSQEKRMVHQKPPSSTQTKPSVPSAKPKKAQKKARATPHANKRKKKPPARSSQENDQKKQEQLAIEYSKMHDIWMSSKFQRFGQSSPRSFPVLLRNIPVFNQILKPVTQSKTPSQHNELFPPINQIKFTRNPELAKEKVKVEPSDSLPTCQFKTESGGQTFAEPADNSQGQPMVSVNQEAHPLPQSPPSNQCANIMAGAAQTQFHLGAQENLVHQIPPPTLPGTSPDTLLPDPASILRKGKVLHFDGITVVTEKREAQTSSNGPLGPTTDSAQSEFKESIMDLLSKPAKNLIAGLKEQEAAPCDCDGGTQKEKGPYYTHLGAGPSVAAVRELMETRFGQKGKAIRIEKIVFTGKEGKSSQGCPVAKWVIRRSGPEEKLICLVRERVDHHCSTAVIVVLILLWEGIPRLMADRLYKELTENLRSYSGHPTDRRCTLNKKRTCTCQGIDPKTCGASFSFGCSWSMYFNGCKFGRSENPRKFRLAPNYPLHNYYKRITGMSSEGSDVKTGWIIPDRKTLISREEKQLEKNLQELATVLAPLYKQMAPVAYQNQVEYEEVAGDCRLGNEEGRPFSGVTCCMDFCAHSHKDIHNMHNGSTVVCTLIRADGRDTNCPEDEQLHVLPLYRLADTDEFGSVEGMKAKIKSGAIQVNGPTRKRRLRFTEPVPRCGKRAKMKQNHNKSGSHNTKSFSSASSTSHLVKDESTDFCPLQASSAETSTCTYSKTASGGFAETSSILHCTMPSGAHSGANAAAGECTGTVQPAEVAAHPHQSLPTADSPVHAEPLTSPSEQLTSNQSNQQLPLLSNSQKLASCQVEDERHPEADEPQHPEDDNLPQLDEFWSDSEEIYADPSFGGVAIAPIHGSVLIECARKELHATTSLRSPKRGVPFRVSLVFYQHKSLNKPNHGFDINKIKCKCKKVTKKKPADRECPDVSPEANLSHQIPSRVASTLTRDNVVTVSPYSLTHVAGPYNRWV
UniProt O09106: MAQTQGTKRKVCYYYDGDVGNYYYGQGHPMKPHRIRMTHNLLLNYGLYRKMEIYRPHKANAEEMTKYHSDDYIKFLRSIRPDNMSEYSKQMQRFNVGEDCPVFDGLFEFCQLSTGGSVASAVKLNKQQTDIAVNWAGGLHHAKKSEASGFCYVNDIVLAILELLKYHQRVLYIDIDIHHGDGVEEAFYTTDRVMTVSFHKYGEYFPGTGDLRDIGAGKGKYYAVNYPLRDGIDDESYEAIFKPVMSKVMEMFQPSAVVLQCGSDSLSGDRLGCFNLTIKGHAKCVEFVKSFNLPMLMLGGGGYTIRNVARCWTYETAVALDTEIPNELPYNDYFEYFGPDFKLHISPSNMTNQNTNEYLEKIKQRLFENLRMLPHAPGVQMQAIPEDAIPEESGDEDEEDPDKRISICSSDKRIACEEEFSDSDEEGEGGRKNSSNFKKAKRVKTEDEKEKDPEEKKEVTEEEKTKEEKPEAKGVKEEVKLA

Key:
RFP-Olig2 = molecular target: T1, RFP-Olig2 (UniProt Q9EQW6); assay: co-IP; reciprocal: Hela cells co-transfected with GFP-TET1 and Olig2; IP with two antibodies against Olig2, blot with GFP antibody
T1 sequence: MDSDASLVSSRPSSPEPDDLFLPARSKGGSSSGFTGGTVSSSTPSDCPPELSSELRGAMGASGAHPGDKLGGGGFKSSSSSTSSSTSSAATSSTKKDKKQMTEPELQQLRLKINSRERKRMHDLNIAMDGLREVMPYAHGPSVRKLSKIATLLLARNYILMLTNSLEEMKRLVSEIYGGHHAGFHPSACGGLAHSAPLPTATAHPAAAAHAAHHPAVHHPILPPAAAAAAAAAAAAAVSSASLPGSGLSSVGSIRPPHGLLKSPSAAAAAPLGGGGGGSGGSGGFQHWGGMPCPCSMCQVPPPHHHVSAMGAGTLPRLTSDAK

[1] = molecular target: TET1 (ten-eleven translocation 1), endogenous in oligodendrocyte lineage cells (mouse (endogenous in primary mouse OPCs and OLs)) (UniProt Q3URK3); assay: co-IP; IP of endogenous TET1 from lysates of mouse OPCs and OLs, Western blot with Olig2 and HDAC1 antibodies; normal IgG as control

Substance	binding (RFP-Olig2)	binding [1]
GFP-TET1 (from UniProt Q3URK3 1-2039)	binds	
histone deacetylases 1 (HDAC1), endogenous in oligodendrocyte lineage cells (from UniProt O09106 1-482)		binds
